Test results as given in patent publication US20230301998A1, “METHODS AND COMPOSITIONS FOR INDUCTION OF ANTITUMOR IMMUNITY” (Sanford Burnham Prebys Medical Discovery Institute, priority 2020, published 2023).
Results are given in words; binding and its absence hold for the method and conditions named. Some entries that bind do so weakly or less than the wild type. Sequences can lack the tags named with a protein.

By UniProt entry, the sequences of proteins in these tests, tags left out. Residues count along the entry.
UniProt P06396, residues 52-782: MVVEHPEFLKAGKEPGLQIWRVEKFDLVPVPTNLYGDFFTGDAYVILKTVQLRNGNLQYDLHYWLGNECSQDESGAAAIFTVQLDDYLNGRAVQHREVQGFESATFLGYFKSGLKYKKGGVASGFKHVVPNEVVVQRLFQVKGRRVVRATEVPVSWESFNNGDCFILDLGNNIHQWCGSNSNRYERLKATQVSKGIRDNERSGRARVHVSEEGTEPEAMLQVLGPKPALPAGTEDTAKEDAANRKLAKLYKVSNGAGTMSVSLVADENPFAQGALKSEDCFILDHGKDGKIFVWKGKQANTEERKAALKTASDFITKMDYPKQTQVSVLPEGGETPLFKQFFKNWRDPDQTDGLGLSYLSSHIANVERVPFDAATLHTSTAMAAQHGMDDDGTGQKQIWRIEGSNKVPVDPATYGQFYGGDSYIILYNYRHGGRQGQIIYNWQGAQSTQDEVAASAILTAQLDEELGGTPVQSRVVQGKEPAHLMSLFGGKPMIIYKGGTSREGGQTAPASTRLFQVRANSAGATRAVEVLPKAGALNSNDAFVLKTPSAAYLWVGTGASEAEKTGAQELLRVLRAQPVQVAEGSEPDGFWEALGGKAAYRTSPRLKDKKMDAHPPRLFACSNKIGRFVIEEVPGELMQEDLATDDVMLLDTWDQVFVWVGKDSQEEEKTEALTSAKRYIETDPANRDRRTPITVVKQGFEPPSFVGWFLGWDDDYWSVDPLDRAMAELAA

Biological target: T1, Flag-tagged SHARPIN (human) (UniProt Q9H0F6)
T1 sequence (looked up): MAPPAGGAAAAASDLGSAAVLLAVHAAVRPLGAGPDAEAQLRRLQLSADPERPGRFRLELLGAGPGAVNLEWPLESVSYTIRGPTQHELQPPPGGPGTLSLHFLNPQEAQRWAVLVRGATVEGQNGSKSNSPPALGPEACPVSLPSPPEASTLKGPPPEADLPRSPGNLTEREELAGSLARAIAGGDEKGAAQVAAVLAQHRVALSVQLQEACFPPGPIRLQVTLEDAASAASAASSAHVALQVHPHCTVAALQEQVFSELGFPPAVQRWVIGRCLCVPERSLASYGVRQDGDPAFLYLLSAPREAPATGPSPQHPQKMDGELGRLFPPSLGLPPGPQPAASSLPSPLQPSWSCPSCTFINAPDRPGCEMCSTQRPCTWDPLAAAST
Test: Flag IP of Flag-SHARPIN from WM115 lysate, on-bead tryptic digestion, LC/MS-MS

binding: binds
Substance: GSN (from UniProt P06396 52-782)
